## Screening data, single-dose tests

Amino acid sequences for entries named in this document (tags omitted).
UniProt I6X8D2, whole entry: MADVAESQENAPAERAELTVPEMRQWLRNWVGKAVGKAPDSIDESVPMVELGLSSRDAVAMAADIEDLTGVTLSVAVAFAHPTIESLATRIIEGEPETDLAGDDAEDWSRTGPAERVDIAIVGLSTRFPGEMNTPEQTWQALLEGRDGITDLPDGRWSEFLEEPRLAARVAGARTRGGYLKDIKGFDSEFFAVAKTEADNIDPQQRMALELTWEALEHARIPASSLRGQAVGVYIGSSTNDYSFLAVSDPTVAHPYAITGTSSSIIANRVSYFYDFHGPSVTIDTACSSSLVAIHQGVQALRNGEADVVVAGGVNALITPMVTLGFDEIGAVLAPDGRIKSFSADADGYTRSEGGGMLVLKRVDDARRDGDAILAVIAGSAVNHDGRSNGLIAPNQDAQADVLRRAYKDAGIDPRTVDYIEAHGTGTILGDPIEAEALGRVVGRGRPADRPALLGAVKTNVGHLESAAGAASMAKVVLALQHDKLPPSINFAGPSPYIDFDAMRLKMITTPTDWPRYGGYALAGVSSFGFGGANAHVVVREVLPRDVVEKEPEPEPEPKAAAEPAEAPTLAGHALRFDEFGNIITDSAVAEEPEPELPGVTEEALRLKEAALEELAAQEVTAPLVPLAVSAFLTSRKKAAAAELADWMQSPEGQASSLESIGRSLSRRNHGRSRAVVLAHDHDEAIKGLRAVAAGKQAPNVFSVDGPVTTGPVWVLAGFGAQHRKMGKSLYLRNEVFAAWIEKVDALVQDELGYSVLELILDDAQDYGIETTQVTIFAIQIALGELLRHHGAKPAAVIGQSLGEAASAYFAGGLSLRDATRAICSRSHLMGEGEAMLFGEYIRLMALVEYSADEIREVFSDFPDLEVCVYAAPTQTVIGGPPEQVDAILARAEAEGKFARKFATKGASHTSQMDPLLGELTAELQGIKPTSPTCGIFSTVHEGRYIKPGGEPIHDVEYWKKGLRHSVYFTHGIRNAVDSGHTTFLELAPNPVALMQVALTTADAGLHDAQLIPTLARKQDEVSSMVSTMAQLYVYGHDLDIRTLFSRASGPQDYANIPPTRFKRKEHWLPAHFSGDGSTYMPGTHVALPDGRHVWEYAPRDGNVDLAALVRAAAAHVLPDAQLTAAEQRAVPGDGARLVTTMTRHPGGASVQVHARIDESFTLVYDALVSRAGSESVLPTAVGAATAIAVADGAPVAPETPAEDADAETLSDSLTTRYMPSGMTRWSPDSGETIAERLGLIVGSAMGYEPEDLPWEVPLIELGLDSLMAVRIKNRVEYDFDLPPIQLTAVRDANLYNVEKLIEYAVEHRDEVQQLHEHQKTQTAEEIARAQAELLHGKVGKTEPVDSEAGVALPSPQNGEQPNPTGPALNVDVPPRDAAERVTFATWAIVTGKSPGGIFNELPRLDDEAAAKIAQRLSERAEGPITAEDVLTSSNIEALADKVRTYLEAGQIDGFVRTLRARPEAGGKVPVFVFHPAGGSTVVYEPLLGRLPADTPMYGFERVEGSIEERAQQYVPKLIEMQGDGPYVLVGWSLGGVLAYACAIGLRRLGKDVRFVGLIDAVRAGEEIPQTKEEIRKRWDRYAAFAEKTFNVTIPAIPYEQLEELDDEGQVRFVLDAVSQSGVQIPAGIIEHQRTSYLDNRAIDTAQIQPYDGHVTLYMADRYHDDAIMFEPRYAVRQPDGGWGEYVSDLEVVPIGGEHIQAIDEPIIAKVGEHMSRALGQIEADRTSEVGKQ

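Enzyme assay of the thioesterase domain of polyketide synthase 13; the read-out is not stated. Target: Polyketide synthase Pks13, Mycobacterium tuberculosis (UniProt I6X8D2). Compounds at 30 µM. Higher reads as stronger inhibition (inferred from which compounds were picked for retests). Size under these conditions: about 67,000 compounds, about 300 of them at 50% or above in at least one test.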

Values are the deposited “Percent Effect”, in %.
The record does not define 0% and 100%; most values in the screen are far below 50% and negative numbers occur (in some assays of this library far below -100).
This is an unselected part of the compounds tested.

| structure | percent effect |
|---|---|
| `COc1cc(C#N)ccc1OCC(=O)N(C1CC1)C(C)c1ccco1` (centres undefined) | -41.58% |
| `CCOc1ccc(C(F)(F)F)cc1NC(=O)NCc1noc(C)n1` | -32.38% |
| `CCn1ncc2c1C(COCC1CC1)CN(S(=O)(=O)N(C)C)C2` (centres undefined) | -18.02% |
| `O=C(NCCn1ccnc1-c1cc2n(n1)CCNC2)c1ccc(F)cc1` | 2.233% |
| `COCCN1C(=O)CC(N2CCN(c3ccccc3)CC2)C1=O` (centres undefined) | -13.55% |
| `c1ccc(-n2ncc(CNCC3CCCN3c3cccnn3)n2)cc1` (centres undefined) | -26.96% |
| `CC(C)c1cccc(N2CCCC3(CCC(=O)N(C4CC4)C3)C2)n1` (centres undefined) | 3.444% |
| `Cn1cccc1C(=O)N1CCc2ncnc(N3CCOCC3)c2CC1` | -1.007% |
| `COCC(=O)N1C[C@H]2CNC[C@@]2(C(=O)NCc2snnc2C)C1` | 0.8019% |
| `CCCn1nc(C)c2c(C(F)F)cc(=O)n(CC(=O)O)c21` | -9.725% |
| `CCN(CC)C(=O)N1CCN(C2=NCC(C)S2)CC1` (centres undefined) | -3.836% |
| `O=C(NC1CCCN(CCc2ccccc2)C1)c1ccccn1` (centres undefined) | -11.96% |
| `CC(C)c1cc(N2CC[C@H](F)C2)n2nccc2n1` | -11.1% |
| `COc1cc(N2CCC3(CC2)CC(N2CCOCC2)C3)ncn1` | -20.2% |
| `Cn1cc(CNCCn2cccn2)c(-c2cccnc2)n1` | -13.42% |
| `CCCc1noc(CNc2ccc(C(=O)N3CCCC3)cc2C)n1` | -21.65% |
| `CCN(CC)C(=O)Cn1ccc2cc(NC(=O)C3CCCO3)ccc21` (centres undefined) | -3.565% |
| `COc1cccc(COC(C)C(=O)NC2CCN(CC(N)=O)CC2)c1` (centres undefined) | -17.1% |
| `CC1(C)CNC(=O)c2nc(C3CCN(C(=O)C4CC4)CC3)[nH]c2C1` | 2.505% |
| `N#Cc1ccc(C(=O)N2CCC3(CC2)C(=O)Nc2ccccc23)cn1` | -5.968% |
| `COCCN(CCOC)S(=O)(=O)N(C)Cc1ccncc1` | -23.28% |
| `CN(C(=O)CN1CCC(c2cc3ccccc3[nH]2)CC1)C(C)(C)C#N` | -38.99% |
| `CCN1CCOCC12CCN(C(=O)C1CCCC1)CC2` | -21.87% |
| `Cc1csc2c(C3CCN(CCCOc4ccccc4)CC3)nc(C)n12` | -9.381% |
| `CCOCCSc1nnc(-c2cn(CC)nc2OCC)n1C` | -3.843% |
| `Cc1nc(CN(C)CC2CCCN(CCc3ccc(Cl)cc3)C2)n(C)n1` (centres undefined) | -10.74% |
| `Cc1nc(C)n(Cc2cccc(NC(=O)N(C)CCC(C)O)c2)n1` (centres undefined) | 4.801% |
| `CCc1nnc2n1CCN(CCC(=O)Nc1cc(C)on1)C2` | -16.85% |
| `CN(Cc1ccccc1)CC(O)Cn1cnc2c(cnn2C)c1=O` (centres undefined) | -4.487% |
| `N#CCCN(Cc1ccco1)C(=O)CCCNC(=O)c1ccccc1` | -20.03% |
| `CC(=O)c1cccc(OC(C)C(=O)Nc2cnn(CCN(C)C)c2)c1` (centres undefined) | 5.271% |
| `CCN(CC)C(=O)c1ccn(COc2ccc(F)cc2F)n1` | 3.723% |
| `N#Cc1ccc(C(=O)NCC2(N3CCOCC3)CCCC2)nc1` | -4.859% |
| `CCc1c(C)nc(N)nc1N1CCCC(c2nc(CCOC)no2)C1` (centres undefined) | -12.58% |
| `CN(C(=O)CNC(=O)CC(C)(C)C)C1CCN(c2ccccn2)CC1` | -20.9% |
| `O=C(CN1CCOC(Cn2cncn2)C1)NCc1cccs1` (centres undefined) | -10.63% |
| `CCc1nccn1C1CCCN(C(=O)c2cnn3cccnc23)C1` (centres undefined) | 3.595% |
| `Cc1noc(C)c1-c1cc(CCC2CN(C(=O)C(C)C)CCO2)ncn1` (centres undefined) | 0.9293% |
| `O=C(Cc1cn2ccccc2n1)N1CCCC(n2cccn2)C1` (centres undefined) | -24.92% |
| `CN1Cc2cc(F)ccc2N(CC(C)(C)O)CCC1=O` | -14.08% |
| `CN1CCC(N(C)C(=O)CCc2ccc(F)c(F)c2)C1=O` (centres undefined) | -21.56% |
| `CCS(=O)(=O)c1ccc2c(c1)OCCO2` | -14.42% |
| `Cc1nnc(CN(C)CCc2nc(-c3cccc(Cl)c3)no2)n1C` | -7.359% |
| `Cc1cc(C)c2ncc(C#N)c(NC3CCN(CC(N)=O)CC3)c2c1` | -6.802% |
| `OCC(O)CSCc1ccc(F)cc1Cl` (centres undefined) | -18.43% |
| `NC(=O)c1nc(CN2CCOC(C(F)(F)F)C2)no1` (centres undefined) | 0.3164% |
| `O=C(Nc1cnc(C2CC2)nc1)N1CCC(CN2CCCC2)C1` (centres undefined) | -29.28% |
| `CC(Cn1cccn1)NC(=O)NCc1ccc(S(N)(=O)=O)cc1` (centres undefined) | -12.72% |
| `Cc1ccnc(NC(=O)c2ccc(F)c(S(=O)(=O)NC3CC3)c2)c1` | -38.75% |
| `CC1CN(C(=O)CN(Cc2ccccc2Br)C2CC2)CCO1` (centres undefined) | -5.474% |
| `CNC(=O)CCc1cc(C)nc(C2CCN(CC(=O)N(C)C)CC2)c1` | 7.838% |
| `Cn1cc(-c2ncnc3c2CCN(C(=O)c2cnccn2)CC3)cn1` | -23.05% |
| `CCNc1ncc(C(=O)N2CCc3c(nc(C)nc3N(C)C)C2)cn1` | 50.1% |
| `CCN(CC)CCn1cc(NC2CCSCC2)cn1` | 1.728% |
| `O=C(c1cnoc1)N1CCC[C@]2(C[C@H](Oc3ncccc3F)CO2)C1` | -19.87% |
| `O=C(NCc1ccccc1)c1nc2c(o1)CN(C(=O)c1cccnc1)C2` | -20.22% |
| `NC(=O)c1cccc(CCNC(=O)N2Cc3ccccc3C2)c1` | -33.44% |
| `Cc1nn(C)cc1Cn1c(=O)c(C)nc2ccccc21` | 14.03% |
| `Cc1noc(Cl)c1CCC(=O)N1CCC(Nc2cccnn2)CC1` | -0.5985% |
| `CC(C)COCCC(=O)NS(=O)(=O)c1ccc(Cl)s1` | -31.97% |
| `Cc1ccccc1C(=O)CN1C(=O)c2ccccc2CS1(=O)=O` | -23.96% |
| `CCc1nc(CN2CCCN(C(=O)c3cn[nH]c3C)CC2)cs1` | 8.555% |
| `CCN1CCCC1(C)c1nc(C)cc(N)n1` (centres undefined) | -2.54% |
| `COCCN1CC[C@@H]2CN(Cc3nccn3C)C[C@@H]2C1` | -13.65% |
| `OC1(CN2CCC(Oc3cccc(C(F)(F)F)c3)CC2)CCNC1` (centres undefined) | -38.94% |
| `Cc1ccc(CN2CCC[C@]3(C(=O)O)CN(CC4CC4)C[C@@H]3C2)s1` | -9.711% |
| `CCOC(=O)CN(C)Cc1cnc(C)s1` | -35.07% |
| `C[C@@H]1C[C@H]2CN(Cc3nccs3)C[C@H]2O1` | -32.86% |
| `Cc1cccc(NC(=O)CNC(=O)Cn2ncc(Cl)c(Cl)c2=O)c1C` | -5.761% |
| `CN1CC2(CCN(Cc3ncc[nH]3)CC2)CC1=O` | -35.93% |
| `O=C1[C@H]2CN(Cc3cccs3)C[C@H]2CN1CCN1CCCC1` | -16.18% |

For reference, 9 entries once more:

{"structure": "CCN(CC)C(=O)Cn1ccc2cc(NC(=O)C3CCCO3)ccc21", "stereo": "centres undefined", "percent effect": -3.565}
{"structure": "CC(C)COCCC(=O)NS(=O)(=O)c1ccc(Cl)s1", "percent effect": -31.97}
{"structure": "CN(C(=O)CNC(=O)CC(C)(C)C)C1CCN(c2ccccn2)CC1", "percent effect": -20.9}
{"structure": "Cc1csc2c(C3CCN(CCCOc4ccccc4)CC3)nc(C)n12", "percent effect": -9.381}
{"structure": "CN1Cc2cc(F)ccc2N(CC(C)(C)O)CCC1=O", "percent effect": -14.08}
{"structure": "Cc1nc(C)n(Cc2cccc(NC(=O)N(C)CCC(C)O)c2)n1", "stereo": "centres undefined", "percent effect": 4.801}
{"structure": "c1ccc(-n2ncc(CNCC3CCCN3c3cccnn3)n2)cc1", "stereo": "centres undefined", "percent effect": -26.96}
{"structure": "CCNc1ncc(C(=O)N2CCc3c(nc(C)nc3N(C)C)C2)cn1", "percent effect": 50.1}
{"structure": "COCCN1CC[C@@H]2CN(Cc3nccn3C)C[C@@H]2C1", "percent effect": -13.65}

Measurements from “University of Dundee, Small-Polar-MMV Screening Library” (2021), ChEMBL document CHEMBL3988442.